Laboratory results taken from patent US20190127480A1.
Where a chain is given by its changes, count along the chain named. No constants are given. Whether binding was seen depends on the method and setting. Some entries that bind do so weakly or less than the wild type. Values belong to the binder of their own block, whether it stands above or below them.

Protein sequences, listed by entry. Tags and fused reporters are not part of them. Lines headed by an entry give the natural chain unless they say otherwise; changes in a name come on top.
UniProt P07766: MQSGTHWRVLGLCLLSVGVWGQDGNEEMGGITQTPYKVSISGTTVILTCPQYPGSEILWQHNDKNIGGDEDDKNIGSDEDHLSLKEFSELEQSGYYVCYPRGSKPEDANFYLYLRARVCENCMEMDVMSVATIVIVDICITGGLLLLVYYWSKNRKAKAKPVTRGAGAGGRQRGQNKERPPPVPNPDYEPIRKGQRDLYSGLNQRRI
UniProt Q04609: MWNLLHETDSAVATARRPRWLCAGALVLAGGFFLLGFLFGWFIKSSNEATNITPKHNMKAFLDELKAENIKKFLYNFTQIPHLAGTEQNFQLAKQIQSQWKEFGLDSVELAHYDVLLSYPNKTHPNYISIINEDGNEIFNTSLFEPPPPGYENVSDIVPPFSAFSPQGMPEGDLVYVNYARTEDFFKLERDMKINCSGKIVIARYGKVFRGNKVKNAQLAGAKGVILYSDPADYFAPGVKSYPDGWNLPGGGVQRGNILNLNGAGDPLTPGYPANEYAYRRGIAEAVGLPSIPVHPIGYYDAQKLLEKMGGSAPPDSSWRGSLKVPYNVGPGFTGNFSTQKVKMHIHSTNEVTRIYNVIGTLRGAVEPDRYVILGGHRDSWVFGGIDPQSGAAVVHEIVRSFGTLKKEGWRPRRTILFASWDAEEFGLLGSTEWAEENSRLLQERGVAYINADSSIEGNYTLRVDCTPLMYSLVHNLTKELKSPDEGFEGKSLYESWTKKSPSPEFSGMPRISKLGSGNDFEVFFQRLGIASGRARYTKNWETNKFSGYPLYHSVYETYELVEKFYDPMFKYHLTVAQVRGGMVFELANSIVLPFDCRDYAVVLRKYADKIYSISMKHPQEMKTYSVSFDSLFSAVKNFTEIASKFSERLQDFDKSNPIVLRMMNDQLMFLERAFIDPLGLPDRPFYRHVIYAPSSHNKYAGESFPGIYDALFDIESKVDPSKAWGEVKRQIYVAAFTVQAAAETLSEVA

Legend:
[1] = target: human CD3 on CD3-expressing cells (Jurkat, human T cells) (human) (UniProt P07766); test: FACS on Jurkat cells
[2] = target: human CD3 on CD3-expressing cells (Jurkat, human T cells) (human) (UniProt P07766); test: FACS / SPR, as summed up in Example 7
[3] = target: human PSMA on PSMA-expressing cells (human) (UniProt Q04609); test: FACS on PSMA-expressing cells
[4] = target: soluble heterodimeric hCD3ε/δ.mFc protein (human); test: SPR, 37 C, antigen-capture format
[5] = target: human CD3 on CD3-expressing cells (Jurkat, human T cells) (human) (UniProt P07766); test: FACS
[6] = target: human PSMA expressed with an N-terminal hexahistidine tag (6h.hPSMA, R&D) (human) (UniProt Q04609); test: SPR (Example 3)
[7] = target: human PSMA expressed with an N-terminal hexahistidine tag (6h.hPSMA, R&D) (human) (UniProt Q04609); test: SPR, 37 C, antibody-capture format

- binding [1]: binds
- binding [2]: binds
- binding [3]: binds
B1: BSPSMA/CD3-004 (bispecific antibody, IgG4, V domains shown)
VH 1: QVQLVESGGGVVQPGRSLRLSCAASGFTFSSYGMHWVRQAPGKGLEWVAVISYAGNNKYYADSVKGRFTVSRDNSKKTLYLQMNSLRSEDTAVYYCAKDSYYDFLTDPDVLDIWGQGTMVTVSS
VH 2: EVQLVESGGGLVQPGRSLRLSCAASGFTFDDYSMHWVRQAPGKGLEWVSGISWNSGSIGYADSVKGRFTISRDNAKNSLYLQMNSLRAEDTALYYCAKDGSGYGKFYYYGMDVWGQGTTVTVSS
VL: DIQMTQSPSSLSASVGDSVTITCRASQSINNYLNWYQQKPGKAPKLLIYTASSLLSGVPSRFSGSGSGTDFTLTISGLHPEDFATYFCQQSFSTPPITFGQGTRLDIK

- binding [4]: binds
- binding [3]: binds
B2: BSPSMA/CD3-1900 (bispecific antibody, IgG4, V domains shown)
VH 1: B1 VH 1
VH 2: B1 VH 2 with Y108H
VL: B1 VL

- binding [7]: binds
B7: H1H11792P2 (antibody, human IgG1, V domains shown)
VH: QVQLVESGGGVVQPGRSLRLSCAASGFTFSSYGMHWVRQPPGKGLEWVAIMSYDGSNKYYADSVKGRFTISRDNSKNTLYLQMNSLRVEDTAVYYCAKDQYYDFLTFDYTLDYWGQGTLVTVSS
VL: B1 VL

- binding [7]: binds
B10: H1H11803P2 (antibody, human IgG1, V domains shown)
VH: QVQLVESGGGVVQPGRSLRLSCAASGFTFSSYGMHWVRQAPGKGLEWVAVIWYDGNNKYYADSVKGRFTISRDNSKKTLYLQMTSLRAEDTAVYYCARDQYYDILTADNTLDYWGQGTLVTVSS
VL: B1 VL

- binding [7]: binds
B12: H1H11808P2 (antibody, human IgG1, V domains shown)
VH: QVQLVESGGGVVQPGRSLRLSCAASGFPFNSYGMHWVRQAPGKGLEWVAVISYDGSNRYYADSVKGRFTISRDNSKYTLDLHVSSLTTDDTAVYYCARDRRYGKWEQLYPDYLGQGTLVTVSS
VL: B1 VL

- binding [7]: binds
B15: H1H11837P2 (antibody, human IgG1, V domains shown)
VH: QVQLVESGGGVVQPGRSLRLSCAASGFTFSSYGMHWVRQAPGKGLEWVTFISYDGNNKYYSDSVKGRFAISRDNSKNTLYLQMNSLRAEDTSVYFCAKDQYYDFLTDFGVFDYWGQGTLVTVSS
VL: B1 VL

The next lines start with the binder.

B3: BSPSMA/CD3-005 (bispecific antibody, IgG4, V domains shown)
VH 1: B1 VH 1
VH 2: B1 VH 2 with D99Y
VL: B1 VL
- binding [4]: binds
- binding [3]: binds

B4: BSPSMA/CD3-2100 (bispecific antibody, IgG4, V domains shown)
VH 1: B1 VH 1
VH 2: B1 VH 2 with I58K
VL: B1 VL
- binding [4]: binds
- binding [3]: binds

B5: CD3-VH-G (antibody, V domains shown)
VH: B1 VH 2 with I58K, D99Y, Y108H, M111L
VL: B1 VL
- binding [5]: binds

B6: H1H11810P2 (antibody, human IgG1, V domains shown)
VH: B1 VH 1
VL: B1 VL
- binding [6]: binds
- binding [7]: binds

B8: H1H11797P2 (antibody, human IgG1, V domains shown)
VH: QVQLVESGGGVVQPGRSLRLSCAASGFSFSGYGMHWVRQAPGKGLEWVAVTWYDGSNKYYADSVKGRFTISRDNSKNTLYLQMNSLRAEDTAVYYCARDGNWGGPYWYFDLWGRGTLVTVSS
VL: B1 VL
- binding [7]: binds

B9: H1H11800P2 (antibody, human IgG1, V domains shown)
VH: QVQLVESGGGVVQPGRSLRLSCAASGFTFSSYGMHWVRQAPGKGLEWVAVISYAGNNKYYVDSVKGRFTISRDNSKNTLYLQMNSLRAEDTAVYYCAKDPYYDFLTGSDYFDYWGQGTLVTVSS
VL: B1 VL
- binding [7]: binds

B11: H1H11805P2 (antibody, human IgG1, V domains shown)
VH: EVQLVESGGGLVQPGGSLRLSCVVSGFTFNNYWMSWVRQAPGKGLEWVANIKKDGSEKYYVDSVKGRFTISRDNAKNSLYLQMNSLRAEDTAVYYCARDIMATIIDWGQGTLVTVSS
VL: B1 VL
- binding [7]: binds

B13: H1H11835P2 (antibody, human IgG1, V domains shown)
VH: EVQLVESGGGLVQSGGSLRLSCEASGFTFSNYWMTWIRQGPGKGLEWVANIKPDGTENYYVDSVKGRFTISRDNARNSLYLQMTSLKAEDTAVYYCGRMIQFVINIWGQGTLVTVSS
VL: B1 VL
- binding [7]: binds

B14: H1H11836P2 (antibody, human IgG1, V domains shown)
VH: QVQLVESGGGVVQPGRSLRLSCAASGFTFRSYGMHWVRQAPGKGLEWVAFISYDESNKHQADSVKGRFTISRDNSKNTLYLQMNSLRAEDTAVYFCAKDQYYDFLTAYDTLDYWGQGTLVTVSS
VL: B1 VL
- binding [7]: binds
